Results as given in US20200009248A1, “TARGETING TGR5 TO TREAT DISEASE” (Mayo Foundation for Medical Education and Research, priority 2014, published 2020).
At least one structure is not confirmed: it was looked up by name or label, or the drawing left a doubt.

Key:
[1] = system: control and cystic cholangiocytes; assay: cAMP production (Bridge-It cAMP assay) in cholangiocytes treated with TGR5 agonists; type: cell-based, rat, human
[2] = system: cystic bile ducts from PCK rats; assay: Three-dimensional culture of cystic bile ducts, cyst growth; type: cell-based, rat; conditions: 25 μm daily, day 3 vs day 1, compared to untreated
Procedure: (§1) Cultured cholangiocytes and cystic bile ducts freshly isolated by microdissection from PCK rats were grown in three-dimensional matrices as described elsewhere (Masyuk et al., Am J Pathol 2014, 184:110-121; and Masyuk et al., Am J Pathol 2004, 165:1719-1730) and treated with TLCA and OA (both, […]) daily. Images were taken at days 1 (i.e., 24 hours after seeding) and 3. The circumferential area of each cyst was measured using ImageJ software (National Institutes of Health, Bethesda, Md.) as described elsewhere (Masyuk et al., Am J Pathol 2014, 184:110-121). Data were expressed as percent change at day 3 compared to day 1.

ADPKD cholangiocytes = assay: Three-dimensional culture of cystic cholangiocytes, cyst growth; type: cell-based, human; conditions: ADPKD cholangiocytes with TGR5 depleted by shRNA
Source text: Control and cystic rat cholangiocytes (derived from wild type and PCK rats, respectively), and control and cystic human cholangiocytes (derived from healthy humans and ADPKD patients, respectively) were used. Cells were isolated and maintained as described elsewhere (Masyuk et al., Hepatol 2013, 58:409-421). […] C1 and C2 were synthesized in the Sanford-Burnham Medical Research Institute at >95% purity by HPLC following a procedure outlined elsewhere (Piotrowski et al., ACS Med Chem Lett 2013, 4:63-68; and Evans et al., J Med Chem 2009, 52:7962-7965). PCK and ADPKD cholangiocytes were stably transfected with TGR5 shRNAs or control shRNAs (Santa Cruz Biotechnology, Santa Cruz, Calif.). Rodents were maintained on a standard diet and water ad lib. […]
as §1, with “Images were taken at days 1 (i.e., 24 hours after seeding) and 3.” left out

C=C[C@@]1(C)CC(=O)[C@]2(O)[C@@]3(C)[C@@H](O)CCC(C)(C)[C@@H]3[C@H](O)[C@H](OC(C)=O)[C@@]2(C)O1 [Forskolin]
cAMP levels after TGR5 depletion ([1]; cystic cholangiocytes with TGR5 depleted by shRNA, forskolin): abolished effects of its agonists but not forskolin | cAMP generation ([1]; rat and human cholangiocytes with or without cilia, 10^−6 M, 15 min): increased cAMP generation independently of the presence or absence of cilia

C[C@H](CCC(=O)NCCS(=O)(=O)O)[C@H]1CC[C@H]2[C@@H]3CC[C@@H]4C[C@H](O)CC[C@]4(C)[C@H]3CC[C@]12C [TLCA, taurolithocholic acid]
cAMP levels ([1]; ciliated control cholangiocytes (rat, human), 25 μM, 30 minutes): decreased cAMP levels | cAMP production ([1]; ciliated cystic cholangiocytes (PCK rat, human ADPKD), 25 μM, 30 minutes): increasing cAMP production | cAMP levels ([1]; non-ciliated control and cystic cholangiocytes (rat, human), 25 μM, 30 minutes): elevated cAMP | growth of cystic structures (cyst expansion) in 3-D culture [2]: accelerated cyst expansion | growth of cystic structures in 3-D culture after TGR5 depletion (ADPKD cholangiocytes): abolished the effects
